At least one structure is not confirmed: it was looked up by name or label, or the drawing left a doubt.
Test system: Listeria monocytogenes
Experiment: Bactericidal activity against Listeria monocytogenes in Trypticase soy broth, pH 6.0, 30° C., 48 hours (CFU/ml)
Type: cell-based
Conditions: 100 ppm butylated hydroxyanisole alone, 0 BHA preparation

## COc1ccc(O)c(C(C)(C)C)c1 [butylated hydroxyanisole]
  CFU/ml: 1.2 × 10e8 CFU/ml
